{
  "source": "paper PMC4583543",
  "about": "“Development and Validation of a Novel Leishmania donovani Screening Cascade for High-Throughput Screening Using a Novel Axenic Assay with High Predictivity of Leishmanicidal Intracellular Activity” (PLoS Neglected Tropical Diseases, 2015)",
  "format_in_all_cases": "cell-based",
  "key": {"[1]": {"system": "LdBOB axenic amastigote-like cells", "experiment": "Novel (cidal) axenic amastigote assay, BacTiter-Glo read-out", "conditions": "Leishmania donovani; read-out: Novel (axenic assay potency, pEC50) (converted)", "source_text": "Leishmania donovani BOB cells (LdBOB) used in this study are a cloned line from strain MHOM/SD/62/1S-CL2 [13]. Cultures were maintained as described previously. Compounds were dispensed into 384-well assay plates by acoustic dispensing (LabCyte ECHO). […] Potencies are reported as pEC50 (-LOG(EC50[M])). All data was processed using IDBS ActivityBase. Raw data was converted into percent inhibition through linear regression by setting the high inhibition control as 100% and the no inhibition control as 0%. For primary single concentration screening in the novel axenic assay we introduced a static control as 0% inhibition (signal at time of assay start), which is explained in more detail in the results section. […] The formula used for signal to background is: […] For compounds with low activity and poor definition of the curve top, B was fixed to 100. For the determination of the reference compound panel potency, all experiments were carried out with a minimum of three independent repeats. Test compounds were pre-dispensed into white 384 well plates (Corning). For library screens one compound per well was tested at the indicated final concentration. […] Plates were then sealed with clear film and relative luminescence was detected using a plate reader (Victor 3) from Perkin Elmer or PHERAstar FS from BMG LABTECH, with 0.5 s detection time per well)."}, "[2]": {"system": "eGFP expressing LdBOB amastigote-like cells in PMA differentiated THP-1 cells", "experiment": "Intramacrophage (intracellular, INMAC) assay", "conditions": "Leishmania donovani, THP-1, 96 h; reference compound panel; mean (standard deviation), minimum three independent repeats; four day incubation; read-out: Intramacrophage (potency, pEC50) (converted)", "method": "Compounds were dispensed into 384-well assay plates by acoustic dispensing (LabCyte ECHO). […] Potencies are reported as pEC50 (-LOG(EC50[M])).\nAll data was processed using IDBS ActivityBase. […] Potency plates were normalised to DMSO control (0% effect) and 2μM amphotericin B control (100% effect). […] For compounds with low activity and poor definition of the curve top, B was fixed to 100. For the determination of the reference compound panel potency, all experiments were carried out with a minimum of three independent repeats.\nThe assay conditions are described previously. Briefly PMA differentiated THP-1 cells were infected overnight with eGFP expressing LdBOB amastigote-like cells at a multiplicity of infection of 5. Next, any remaining free amastigote-like cells are removed and compounds are added. The microscopy-based read-out is done after a four day compound incubation."}, "HepG2 cells": {"system": "HepG2 cells", "experiment": "HepG2 assay (mammalian counterscreen, resazurin)", "conditions": "Homo sapiens, reference compound panel, mean (standard deviation), 72 h, read-out: HepG2 (potency, pEC50) (converted)", "source_text": "Compounds were dispensed into 384-well assay plates by acoustic dispensing (LabCyte ECHO). […] Potencies are reported as pEC50 (-LOG(EC50[M])). All data was processed using IDBS ActivityBase. Raw data was converted into percent inhibition through linear regression by setting the high inhibition control as 100% and the no inhibition control as 0%. For primary single concentration screening in the novel axenic assay we introduced a static control as 0% inhibition (signal at time of assay start), which is explained in more detail in the results section. […] The formula used for signal to background is: […] For compounds with low activity and poor definition of the curve top, B was fixed to 100. For the determination of the reference compound panel potency, all experiments were carried out with a minimum of three independent repeats. The assay conditions are described previously."}},
  "data": [
    {"smiles": "CN1CCC[C@@H]1CCO[C@](C)(c1ccccc1)c1ccc(Cl)cc1", "note": "[Clemastine]", "values": [
      {"measurement": "EC50", "setting": "[1]", "result": "> 50.1", "unit": "µM"},
      {"measurement": "EC50", "setting": "[2]", "result": 15.8, "unit": "µM"},
      {"measurement": "EC50", "setting": "HepG2 cells", "result": 21.9, "unit": "µM"}
    ]}
  ]
}
